The record followed here is article PMC6127294, “Jungle Express is a versatile repressor system for tight transcriptional control” (Nature Communications, 2018).

A weaker result is weaker than the reference pair of the same experiment. Protein sequences can lack the tags named with them.

In this data set the target is T1, EilR-Y03A Y3A (UniProt A0A346M331).
T1 sequence (looked up): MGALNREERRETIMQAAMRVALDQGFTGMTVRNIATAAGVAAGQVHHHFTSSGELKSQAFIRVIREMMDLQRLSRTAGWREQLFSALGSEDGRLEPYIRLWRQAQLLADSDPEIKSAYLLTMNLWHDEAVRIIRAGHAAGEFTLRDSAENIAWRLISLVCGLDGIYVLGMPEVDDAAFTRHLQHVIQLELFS
Briefly: EMSA. Conditions: complex appears from 0.5:1 EilR:DNA, 10 mM MgCl2; Operator EMSA: 30 mM Tris pH 7.7, 100 mM NaCl, 25 mM arginine, 25 mM glutamine, 5 mM MgCl2, RT 1.5 h; recombinant protein; residues 1-192. (In general: In EMSA bound probe runs differently from free probe, usually more slowly.)

In the case of “AAAAAGTTGGACACGTGTCCAACTTTCC (double strand) [eilOc 28-mer duplex]”, the binding result is on record as “binds more weakly”.
